Experimental data taken from article PMC3750411.
Results are given in words; binding and its absence hold for the method and conditions named. In cells and extracts the contact can be indirect.

Tests used:
[1] = molecular target: T1, human scavenger receptor class A type II (SR-AII) (human) (UniProt P21757); assay: co-IP; total lysates of transfected COS-7 cells; rabbit anti-human SR-A antibody on Dynabead protein G, overnight at 4°C; Western blot with anti-BiP antibody
T1 sequence: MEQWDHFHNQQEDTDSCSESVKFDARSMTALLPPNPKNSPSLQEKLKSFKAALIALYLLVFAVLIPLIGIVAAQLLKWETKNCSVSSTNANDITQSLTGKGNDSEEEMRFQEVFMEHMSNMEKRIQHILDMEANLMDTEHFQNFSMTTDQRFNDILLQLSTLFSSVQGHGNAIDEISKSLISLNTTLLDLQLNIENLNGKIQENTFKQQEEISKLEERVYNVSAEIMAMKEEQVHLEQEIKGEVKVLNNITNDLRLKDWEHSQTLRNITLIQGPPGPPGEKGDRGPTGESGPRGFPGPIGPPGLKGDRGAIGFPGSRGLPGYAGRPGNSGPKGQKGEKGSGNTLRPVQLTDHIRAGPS

[2] = molecular target: T2, human scavenger receptor class A type I (SR-AI) (human) (UniProt P21757); assay: as above
T2 sequence: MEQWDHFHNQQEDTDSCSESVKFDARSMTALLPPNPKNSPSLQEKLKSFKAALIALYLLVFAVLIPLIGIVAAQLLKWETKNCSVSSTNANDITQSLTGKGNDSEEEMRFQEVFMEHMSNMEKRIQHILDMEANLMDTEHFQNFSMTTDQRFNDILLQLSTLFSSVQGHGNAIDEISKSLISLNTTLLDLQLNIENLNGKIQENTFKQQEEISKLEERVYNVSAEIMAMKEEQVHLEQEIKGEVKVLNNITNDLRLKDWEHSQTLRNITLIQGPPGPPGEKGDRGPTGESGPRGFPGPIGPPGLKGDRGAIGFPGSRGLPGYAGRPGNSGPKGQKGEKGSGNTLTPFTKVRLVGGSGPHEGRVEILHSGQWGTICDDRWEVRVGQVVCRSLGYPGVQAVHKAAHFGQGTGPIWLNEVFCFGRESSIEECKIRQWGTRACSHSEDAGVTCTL

BiP (monkey (endogenous in COS-7))
binding [1]: no binding | binding [2]: no binding
